According to article PMC6770663:
These are yes or no findings as the source states them, for the method shown. In cells and extracts the contact can be indirect. Binding can be weak; no strength is given.

Target: A-kinase anchoring protein Yotiao (AKAP9) (mouse (endogenous in heart))
Assay: co-IP; IP-AC assay: heart extracts from WT, IKs or IKs-AC9KO mice; IP with anti-Yotiao or anti-KCNQ1 against the corresponding IgG; AC activity in the immunoprecipitate measured after stimulation with 300 nM Gαs; AC9 identified by loss of the activity in AC9KO hearts

B1: adenylyl cyclase Type 9 (AC9) (enzyme, UniProt P51830 1-1353)
chain: MASSPHQQLLHHHSTEVSCDSSGDSNSVRVKINPKQLSSNTHPKHCKYSISSSCSSSGDSGGLPRRVGGGGRLRRQKKLPQLFERASSRWWDPKFDSMNLEEACLERCFPQTQRRFRYALFYVGFACLLWSIYFAVHMKSKVIVMVVPALCFLVVCVGFFLFTFTKLYARHYAWTSLALTLLVFALTLAAQFQVWTPLSGRVDSSNHTLTATPADTCLSQVGSFSICIEVLLLLYTVMQLPLYLSLFLGVVYSVLFETFGYHFRNEDCYPSPGPGALHWELLSRALLHVCIHAIGIHLFVMSQVRSRSTFLKVGQSIMHGKDLEVEKALKERMIHSVMPRIIADDLMKQGDEESENSVKRHATSSPKNRKKKSSIQKAPIAFRPFKMQQIEEVSILFADIVGFTKMSANKSAHALVGLLNDLFGRFDRLCEQTKCEKISTLGDCYYCVAGCPEPRADHAYCCIEMGLGMIKAIEQFCQEKKEMVNMRVGVHTGTVLCGILGMRRFKFDVWSNDVNLANLMEQLGVAGKVHISEATAKYLDDRYEMEDGRVIERLGQSVVADQLKGLKTYLISGQRAKESHCSCAEALLSGFEVIDDSRESSGPRGQGTASPGSVSDLAQTVKTFDNLKTCPSCGITFAPKSEAGAEGGTVQNGCQDEPKTSTKASGGPNSKTQNGLLSPPAEEKLTNSQTSLCEILQEKGRWAGVSLDQSALLPLRFKNIREKTDAHFVDVIKEDSLMKDYFFKPPINQFSLNFLDQELERSYRTSYQEEVIKNSPVKTFASATFSSLLDVFLSTTVFLILSITCFLKYGATATPPPPAALAVFGADLLLEVLSLIVSIRMVFFLEDVMTCTKWLLEWIAGWLPRHCIGAILVSLPALAVYSHITSEFETNIHVTMFTGSAVLVAVVHYCNFCQLSSWMRSSLATIVGAGLLLLLHISLCQDSSIVMSPLDSAQNFSAQRNPCNSSVLQDGRRPASLIGKELILTFFLLLLLVWFLNREFEVSYRLHYHGDVEADLHRTKIQSMRDQADWLLRNIIPYHVAEQLKVSQTYSKNHDSGGVIFASIVNFSEFYEENYEGGKECYRVLNELIGDFDELLSKPDYNSIEKIKTIGATYMAASGLNTAQCQEGGHPQEHLRILFEFAKEMMRVVDDFNNNMLWFNFKLRVGFNHGPLTAGVIGTTKLLYDIWGDTVNIASRMDTTGVECRIQVSEESYRVLSKMGYDFDYRGTVNVKGKGQMKTYLYPKCTDNGVVPQHQLSISPDIRVQVDGSIGRSPTDEIANLVPSVQYSDKASLGSDDSTQAKEARLSSKRSWREPVKAEERFPFGKAIEKDSCEDIGVEEASELSKLNVSKSV
In the case of B1, the binding is reported as “binds”.
